Laboratory results: the supplement of paper PMC12889115
The other results are listed elsewhere or left out. These are raw signals, not scaled to a control.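 Primary screen: polymyxin B was added at a level permeabilizing Salmonella outer membranes while sparing inner membranes. DMSO wells, both with and without polymyxin B, established maximum growth. Plate-to-plate variation meant each plate was ranked on its own, and the lowest-OD600 compounds were selected as hits.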

Test system: Salmonella enterica serovar Typhimurium SL1344
Experiment: bacterial growth OD600 after 18 h with compound and polymyxin B; higher = more bacterial growth (less inhibition)
Conditions: 50 µM, Mueller-Hinton broth

Row | SMILES | bacterial growth OD600 (polymyxin B 0.75 µg/mL) | bacterial growth OD600 (polymyxin B 1 µg/mL)
1 | CO[C@H]1[C@H](NC(=O)CSC)c2ccccc2C12CCN(Cc1cnn(-c3ccc(F)cc3)c1)CC2 | 0.939 | –
2 | CCS(=O)(=O)Nc1cccc(N2CCC(NCc3cccc(OC(F)(F)F)c3)CC2)c1 | 0.799 | –
3 | COc1ccc(CC2CN(C(=O)CN3CCCCCC3)CCO2)cc1 (stereo not given) | 0.995 | –
4 | Cc1cccc(CNC2CC(=O)N(CCCc3ccccc3)C2)n1 (stereo not given) | – | 0.968
5 | Cc1oc(-c2cccc(NC(=O)CCc3cccnc3)c2)nc1CNC(=O)c1cc2cc(F)ccc2[nH]1 | 0.571 | –
6 | CC(C)(CO)CN1CCCC(C(=O)Nc2ccccc2Oc2cccnc2)C1 (stereo not given) | 0.779 | –
7 | O=C(NCc1cccnc1N1CCc2ccccc2C1)c1cscn1 | 0.712 | –
8 | CCOC(c1ccccc1)c1ccc2c(c1)CN(Cc1c(C)n(C)n(-c3ccccc3)c1=O)CCO2 (stereo not given) | 0.779 | –
9 | NC(=O)[C@@H]1CCCN1C1CCN(c2cccc(NS(=O)(=O)c3ccc(F)cc3)c2)CC1 | 0.814 | –
10 | O=C(Cn1cccn1)N1CCC2(CCCN(CC3CCCCC3)C2=O)C1 (stereo not given) | – | 1.01
11 | C[C@@H]1CN(C2(C(=O)NC3CCCC3)Cc3ccccc3C2)C[C@H](C)O1 | 0.825 | –
12 | CC(=O)N1CCC(C(=O)Nc2ccc(Oc3ccccc3F)cc2)CC1 | – | 0.916
13 | COc1ccccc1CNC(=O)c1c(OC)cc(=O)n2c1CCN(Cc1ccccc1F)CC2 | 0.816 | –
14 | O=C(c1cc(-c2ccccc2)n[nH]1)N1CCC(n2c(CCc3ccccc3)nc3cccnc32)CC1 | 0.015 | –
15 | CC(C)S(=O)(=O)N1CCc2onc(C(c3ccccc3)c3ccccc3)c2C1 | 0.491 | –
16 | CN(C(=O)c1ccn(C)n1)C(Cc1ccccc1)C1CCN(Cc2ccc(C#CC(C)(C)O)cc2)CC1 (stereo not given) | 0.933 | –
17 | Cc1c(C(C)NC2CCN(Cc3cccnc3)CC2)cnn1-c1ccc(F)cc1F (stereo not given) | – | 0.982
18 | O=C(NC1CCC1)c1coc(COc2ccccc2)n1 | – | 0.88
19 | OCC1(CCCc2ccccc2)CCCN(C2CSCCSC2)C1 (stereo not given) | 0.427 | –
20 | CN(C)S(=O)(=O)N1CCc2[nH]nc(-c3ccccc3F)c2C1 | 0.819 | –

Record cards, from the list above. Values in the order: bacterial growth OD600 (polymyxin B 0.75 µg/mL)	bacterial growth OD600 (polymyxin B 1 µg/mL)
Cc1cccc(CNC2CC(=O)N(CCCc3ccccc3)C2)n1 (stereo not given) as listed: –	0.968
O=C(NCc1cccnc1N1CCc2ccccc2C1)c1cscn1 as listed: 0.712	–
